The record followed here is patent US11213514B2, “Alpha-1-adrenergic receptor agonist therapy” (The Regents of the University of California, priority 2016, dated 2022).

One series concerns wild type (WT) mice. The series can be described thus: Doxorubicin cardiotoxicity in wild type mice (survival, anatomy, conscious echocardiography, fibrosis). Particulars: Day 0 (baseline) echocardiography. The source says: (§1) FIGS. 2A-2B. […] On Day 7 the mice underwent echocardiography prior to sacrifice. FIG. 2A. Fractional shortening, a measure of contractile function, with representative M-mode echocardiogram images. […] FIG. 2B. Heart sections from some of these mice (i.e. wild type mice) stained with Masson Trichrome. Fibrosis (weighted average collagen content) was quantified using Aperio ImageScope software.
(§2) On Day 7, mice underwent echocardiography and were sacrificed by cervical dislocation after an overdose of isoflurane.
(§3) Conscious transthoracic echocardiography was performed on loosely restrained mice in the McAllister Heart Institute Animal Models Core using a VisualSonics Vevo 2100 ultrasound system (VisualSonics, Inc., Toronto, Ontario, Canada). Two-dimensional and M-mode echocardiography were performed in the parasternal long-axis view at the level of the papillary muscle. Left ventricular systolic function was assessed by fractional shortening (% FS=[(LVEDD−LVESD)/LVEDD]×100). Reported values represent the average of at least five cardiac cycles per mouse. Sonographers and investigators were blinded to mouse treatment condition during image acquisition and analysis.
Mice were heparinized and the heart was perfused with 10 mL PBS followed by 20 mL of 4% PFA/PBS through a 23 G butterfly needle, excised and placed in 4% PFA/PBS for 24 hours then transferred to 70% EtOH. Hearts were stained using standard methods in the UNC Histology Research Core. Fibrosis was analyzed in 3 Masson Trichrome (MT)-stained sections of 4 or 5 hearts from each treatment group. Slides were scanned using an Aperio ScanScope (Aperio Technologies, Vista, Calif.) and analyzed in Aperio ImageScope software. The Algorithm Positive Pixel Count v9 was used to measure collagen staining by MT using hue value (0.66) and hue width (0.1) The N positive/N total value was used to determine a weighted average collagen content (%) for each section.

Series [1] relates to mice lacking the α1A-AR (AKO). Description: Doxorubicin cardiotoxicity in mice lacking the α1A-AR (survival, anatomy, conscious echocardiography). The settings on record: α1A-KO mice, Day 0 (baseline) echocardiography.
From the text: as §1
C57Bl6J mice were from Jackson Laboratory or from our breeding colony. α1A-AR knockout (AKO) mice from Paul C. Simpson were congenic on a C57Bl6J background for at least 10 generations and produced by heterozygous breeding in our animal facility. 8-12 week old males were used in all experiments. Female Sprague-Dawley rats with newborn litters were from Charles River. Animal care and experimental protocols were approved by the UNC IACUC and complied with Guide for the Care and the use of Laboratory Animals (National Research Council Committee for the Update of the Guide for the Care and Use of Laboratory Animals, 2011).
as §2, §3

Turning to `Cc1c(OCC2=NCCN2)ccc(Cl)c1NS(C)(=O)=O` [dabuzalgron, N-[6-chloro-3-(4,5-dihydro-1H-imidazol-2-ylmethoxy)-2-methylphenyl]methanesulfonamide], in the series with wild type (WT) mice (Dox + 1240 20 μg/kg/d group), the “FS (Fractional Shortening)” value came out at 50 ± 3%; the “LVs vol (Left Ventricular systolic volume)” value is given as 5 ± 1 mL; the “PWd (Posterior Wall, diastole)” value is on record as 0.9 ± 0^ cm. In series [1] (Dox + 1240 20 μg/kg/d group), the “FS (Fractional Shortening)” value turned out to be 54 ± 1% and the “HR (Heart Rate)” value is 703 ± 13 beats per minute.

In the case of `COc1cccc2c1C(=O)c1c(O)c3c(c(O)c1C2=O)C[C@@](O)(C(=O)CO)C[C@@H]3O[C@H]1C[C@H](N)[C@H](O)[C@H](C)O1` [DOX, doxorubicin], in the series on wild type (WT) mice (Dox + vehicle group), the “FS (Fractional Shortening)” value was 54 ± 2%; the “LVs vol (Left Ventricular systolic volume)” value amounted to 5 ± 1 mL; the “PWd (Posterior Wall, diastole)” value is listed as 0.8 ± 0^ cm. Further, in series [1] (Dox + vehicle group), the “FS (Fractional Shortening)” value came to 55 ± 1% and the “HR (Heart Rate)” value turned out to be 679 ± 38 beats per minute.
